Test results reported in US20240309360A1 (GOVERNING COUNCIL OF THE UNIVERSITY OF TORONTO, published 2024).

The chains behind the UniProt entries cited, without tags or fusion partners. Residues count along the entry.
UniProt Q9H2F5, whole entry: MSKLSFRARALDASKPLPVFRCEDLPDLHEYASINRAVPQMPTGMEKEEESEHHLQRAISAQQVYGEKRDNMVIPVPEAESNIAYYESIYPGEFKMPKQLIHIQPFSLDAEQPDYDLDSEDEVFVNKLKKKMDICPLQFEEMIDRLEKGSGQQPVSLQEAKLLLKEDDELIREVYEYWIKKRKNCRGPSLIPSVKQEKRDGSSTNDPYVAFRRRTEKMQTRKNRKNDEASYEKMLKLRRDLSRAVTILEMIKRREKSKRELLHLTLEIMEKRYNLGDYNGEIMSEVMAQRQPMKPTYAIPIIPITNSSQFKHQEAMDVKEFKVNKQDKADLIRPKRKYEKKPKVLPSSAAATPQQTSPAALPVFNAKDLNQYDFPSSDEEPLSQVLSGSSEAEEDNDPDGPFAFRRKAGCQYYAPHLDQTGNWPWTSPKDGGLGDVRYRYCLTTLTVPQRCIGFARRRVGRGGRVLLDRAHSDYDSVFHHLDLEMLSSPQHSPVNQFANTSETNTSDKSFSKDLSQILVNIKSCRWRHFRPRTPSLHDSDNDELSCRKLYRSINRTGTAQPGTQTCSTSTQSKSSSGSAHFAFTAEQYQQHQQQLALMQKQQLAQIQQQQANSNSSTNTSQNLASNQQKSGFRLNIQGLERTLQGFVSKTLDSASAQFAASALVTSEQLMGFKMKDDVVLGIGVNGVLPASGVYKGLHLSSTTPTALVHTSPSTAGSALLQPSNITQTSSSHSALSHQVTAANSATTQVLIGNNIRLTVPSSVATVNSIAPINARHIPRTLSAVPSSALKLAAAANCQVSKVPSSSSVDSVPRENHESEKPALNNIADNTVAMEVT
UniProt Q09472, 2-2414 limits assumed: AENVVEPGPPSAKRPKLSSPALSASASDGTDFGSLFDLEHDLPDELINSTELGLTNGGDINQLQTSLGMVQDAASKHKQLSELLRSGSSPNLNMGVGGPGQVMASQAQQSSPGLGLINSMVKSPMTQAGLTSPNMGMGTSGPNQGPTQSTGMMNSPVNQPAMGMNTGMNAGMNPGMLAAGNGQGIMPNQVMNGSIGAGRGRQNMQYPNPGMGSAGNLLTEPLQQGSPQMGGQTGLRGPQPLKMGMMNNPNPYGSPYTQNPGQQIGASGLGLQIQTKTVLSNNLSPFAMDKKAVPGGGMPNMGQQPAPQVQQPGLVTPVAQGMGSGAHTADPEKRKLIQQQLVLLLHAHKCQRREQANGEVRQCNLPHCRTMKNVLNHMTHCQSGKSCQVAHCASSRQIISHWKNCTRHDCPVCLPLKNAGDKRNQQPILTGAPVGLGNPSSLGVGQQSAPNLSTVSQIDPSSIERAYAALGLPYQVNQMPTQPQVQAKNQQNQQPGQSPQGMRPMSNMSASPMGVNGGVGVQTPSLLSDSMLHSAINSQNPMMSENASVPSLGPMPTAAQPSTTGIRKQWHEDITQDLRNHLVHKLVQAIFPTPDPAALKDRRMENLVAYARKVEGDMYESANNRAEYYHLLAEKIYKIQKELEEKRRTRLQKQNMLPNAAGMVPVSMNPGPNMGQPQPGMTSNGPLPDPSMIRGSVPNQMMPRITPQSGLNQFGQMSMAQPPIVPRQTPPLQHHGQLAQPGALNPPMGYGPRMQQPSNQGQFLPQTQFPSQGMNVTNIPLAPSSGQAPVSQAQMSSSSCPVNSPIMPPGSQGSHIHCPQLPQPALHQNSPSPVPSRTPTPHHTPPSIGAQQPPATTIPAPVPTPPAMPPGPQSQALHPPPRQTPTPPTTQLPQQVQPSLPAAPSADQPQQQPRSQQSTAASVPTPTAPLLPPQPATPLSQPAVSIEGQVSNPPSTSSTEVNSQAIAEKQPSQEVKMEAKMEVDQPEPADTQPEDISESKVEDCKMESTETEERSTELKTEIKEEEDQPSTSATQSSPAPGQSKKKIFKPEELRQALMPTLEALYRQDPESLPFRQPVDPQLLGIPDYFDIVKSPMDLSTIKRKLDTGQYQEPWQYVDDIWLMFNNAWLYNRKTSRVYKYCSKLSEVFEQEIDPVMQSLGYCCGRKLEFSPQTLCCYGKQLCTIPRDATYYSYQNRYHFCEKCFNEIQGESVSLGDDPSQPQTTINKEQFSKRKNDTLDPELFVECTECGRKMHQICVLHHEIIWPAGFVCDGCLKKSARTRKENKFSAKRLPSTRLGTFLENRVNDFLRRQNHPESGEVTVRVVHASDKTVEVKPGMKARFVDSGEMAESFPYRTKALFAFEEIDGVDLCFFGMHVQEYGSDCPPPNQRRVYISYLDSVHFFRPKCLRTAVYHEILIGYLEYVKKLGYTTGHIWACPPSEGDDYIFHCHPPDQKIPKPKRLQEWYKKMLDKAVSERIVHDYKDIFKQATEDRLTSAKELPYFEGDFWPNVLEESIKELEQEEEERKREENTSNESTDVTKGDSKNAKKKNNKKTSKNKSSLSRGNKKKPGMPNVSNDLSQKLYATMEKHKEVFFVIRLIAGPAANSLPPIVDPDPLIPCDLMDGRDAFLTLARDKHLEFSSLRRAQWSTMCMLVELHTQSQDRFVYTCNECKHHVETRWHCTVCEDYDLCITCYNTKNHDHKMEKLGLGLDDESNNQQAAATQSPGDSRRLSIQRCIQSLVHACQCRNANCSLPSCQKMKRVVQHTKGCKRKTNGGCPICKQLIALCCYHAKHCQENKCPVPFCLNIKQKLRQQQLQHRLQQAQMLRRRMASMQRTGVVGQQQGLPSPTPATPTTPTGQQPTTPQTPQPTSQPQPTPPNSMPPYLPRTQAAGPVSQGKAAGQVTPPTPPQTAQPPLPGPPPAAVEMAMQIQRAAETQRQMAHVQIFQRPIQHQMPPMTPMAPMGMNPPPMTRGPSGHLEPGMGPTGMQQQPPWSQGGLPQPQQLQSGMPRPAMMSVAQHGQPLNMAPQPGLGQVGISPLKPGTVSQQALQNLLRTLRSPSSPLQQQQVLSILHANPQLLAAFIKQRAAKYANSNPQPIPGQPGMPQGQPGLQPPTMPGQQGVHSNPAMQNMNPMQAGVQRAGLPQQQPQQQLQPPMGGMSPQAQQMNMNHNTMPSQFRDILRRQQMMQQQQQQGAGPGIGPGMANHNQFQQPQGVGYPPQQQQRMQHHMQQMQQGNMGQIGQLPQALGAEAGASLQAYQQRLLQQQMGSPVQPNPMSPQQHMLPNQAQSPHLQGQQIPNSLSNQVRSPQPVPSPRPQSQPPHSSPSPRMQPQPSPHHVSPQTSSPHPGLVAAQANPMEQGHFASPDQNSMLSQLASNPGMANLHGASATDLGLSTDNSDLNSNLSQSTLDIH
UniProt Q92793, 2-2442 limits assumed: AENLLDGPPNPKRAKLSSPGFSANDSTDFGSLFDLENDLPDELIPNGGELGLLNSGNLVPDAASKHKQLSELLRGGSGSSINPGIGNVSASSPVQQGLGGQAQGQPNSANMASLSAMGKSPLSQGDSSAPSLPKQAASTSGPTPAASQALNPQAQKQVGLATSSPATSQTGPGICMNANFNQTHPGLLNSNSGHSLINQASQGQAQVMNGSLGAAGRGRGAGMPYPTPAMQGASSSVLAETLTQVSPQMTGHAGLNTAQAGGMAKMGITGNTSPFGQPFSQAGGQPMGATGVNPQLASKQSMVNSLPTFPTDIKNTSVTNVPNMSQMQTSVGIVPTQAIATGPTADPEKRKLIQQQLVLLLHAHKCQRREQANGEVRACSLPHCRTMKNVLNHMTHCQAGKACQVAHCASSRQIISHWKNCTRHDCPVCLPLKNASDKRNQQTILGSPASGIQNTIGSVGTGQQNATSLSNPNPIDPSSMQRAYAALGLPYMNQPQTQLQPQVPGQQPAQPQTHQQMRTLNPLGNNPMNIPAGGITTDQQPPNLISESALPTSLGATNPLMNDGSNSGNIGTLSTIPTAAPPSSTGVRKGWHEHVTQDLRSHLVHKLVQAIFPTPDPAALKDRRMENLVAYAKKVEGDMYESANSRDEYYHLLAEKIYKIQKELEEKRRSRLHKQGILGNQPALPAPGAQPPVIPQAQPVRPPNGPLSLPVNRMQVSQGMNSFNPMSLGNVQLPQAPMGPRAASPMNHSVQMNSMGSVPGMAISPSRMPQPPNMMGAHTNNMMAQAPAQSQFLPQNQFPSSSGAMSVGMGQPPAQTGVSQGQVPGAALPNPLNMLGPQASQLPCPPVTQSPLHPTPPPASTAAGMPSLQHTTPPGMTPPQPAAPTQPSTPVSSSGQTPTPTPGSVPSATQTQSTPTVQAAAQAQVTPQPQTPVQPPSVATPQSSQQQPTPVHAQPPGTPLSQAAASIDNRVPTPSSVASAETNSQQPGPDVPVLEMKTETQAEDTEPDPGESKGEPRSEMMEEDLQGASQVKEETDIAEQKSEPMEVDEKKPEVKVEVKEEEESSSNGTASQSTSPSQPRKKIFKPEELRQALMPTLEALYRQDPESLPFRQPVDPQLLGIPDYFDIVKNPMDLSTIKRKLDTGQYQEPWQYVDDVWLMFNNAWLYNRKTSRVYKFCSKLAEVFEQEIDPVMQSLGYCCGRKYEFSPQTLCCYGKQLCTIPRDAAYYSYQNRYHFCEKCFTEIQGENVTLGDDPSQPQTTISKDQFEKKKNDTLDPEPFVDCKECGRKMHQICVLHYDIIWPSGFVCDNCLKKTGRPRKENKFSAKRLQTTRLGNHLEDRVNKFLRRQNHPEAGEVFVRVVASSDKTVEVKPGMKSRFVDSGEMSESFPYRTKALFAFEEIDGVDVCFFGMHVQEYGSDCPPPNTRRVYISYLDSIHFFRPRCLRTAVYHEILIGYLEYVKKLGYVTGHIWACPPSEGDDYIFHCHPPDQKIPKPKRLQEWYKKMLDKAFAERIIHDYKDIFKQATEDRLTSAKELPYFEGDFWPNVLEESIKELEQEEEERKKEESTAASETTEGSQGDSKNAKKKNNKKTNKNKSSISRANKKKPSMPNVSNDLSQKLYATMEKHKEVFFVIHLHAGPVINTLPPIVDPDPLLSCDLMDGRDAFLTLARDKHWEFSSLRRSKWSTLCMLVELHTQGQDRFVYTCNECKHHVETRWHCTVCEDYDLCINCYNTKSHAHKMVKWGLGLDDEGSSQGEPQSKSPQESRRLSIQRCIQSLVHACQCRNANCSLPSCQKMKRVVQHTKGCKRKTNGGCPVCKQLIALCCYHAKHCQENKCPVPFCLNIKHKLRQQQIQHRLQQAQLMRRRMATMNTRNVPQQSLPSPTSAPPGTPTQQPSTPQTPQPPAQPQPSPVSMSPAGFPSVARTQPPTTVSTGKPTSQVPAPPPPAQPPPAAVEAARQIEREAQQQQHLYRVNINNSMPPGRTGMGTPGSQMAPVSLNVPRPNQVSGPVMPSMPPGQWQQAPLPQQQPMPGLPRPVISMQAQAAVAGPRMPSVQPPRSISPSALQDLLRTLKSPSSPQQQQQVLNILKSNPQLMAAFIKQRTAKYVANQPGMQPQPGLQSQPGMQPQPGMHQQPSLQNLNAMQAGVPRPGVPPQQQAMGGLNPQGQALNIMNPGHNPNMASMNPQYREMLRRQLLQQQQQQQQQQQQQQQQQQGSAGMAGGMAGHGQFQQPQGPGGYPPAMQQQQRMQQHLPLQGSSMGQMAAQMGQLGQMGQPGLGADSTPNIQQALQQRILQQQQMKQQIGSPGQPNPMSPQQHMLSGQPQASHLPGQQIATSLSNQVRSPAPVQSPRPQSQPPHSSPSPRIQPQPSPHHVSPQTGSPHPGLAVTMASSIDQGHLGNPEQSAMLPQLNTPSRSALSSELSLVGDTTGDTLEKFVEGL

B1: KLF6 fused to BioID2 (BirA from Aquifex aeolicus) and FLAG (other, human;Aquifex aeolicus, UniProt Q99612 1-283, looked up)
chain: MDVLPMCSIFQELQIVHETGYFSALPSLEEYWQQTCLELERYLQSEPCYVSASEIKFDSQEDLWTKIILAREKKEESELKISSSPPEDTLISPSFCYNLETNSLNSDVSSESSDSSEELSPTAKFTSDPIGEVLVSSGKLSSSVTSTPPSSPELSREPSQLWGCVPGELPSPGKVRSGTSGKPGDKGNGDASPDGRRRVHRCHFNGCRKVYTKSSHLKAHQRTHTGEKPYRCSWEGCEWRFARSDELTRHFRKHTGAKPFKCSHCDRCFSRSDHLALHMKRHL
notes: Tetracycline-inducible bait in HEK293 Flp-In T-REx cells; not shown: BioID2 biotin ligase (BirA from Aquifex aeolicus), C-terminal tag
B2: HOXB2 fused to BioID2 (BirA from Aquifex aeolicus) and FLAG (other, human;Aquifex aeolicus, UniProt P14652 1-356, looked up)
chain: MNFEFEREIGFINSQPSLAECLTSFPAVLETFQTSSIKESTLIPPPPPFEQTFPSLQPGASTLQRPRSQKRAEDGPALPPPPPPPLPAAPPAPEFPWMKEKKSAKKPSQSATSPSPAASAVPASGVGSPADGLGLPEAGGGGARRLRTAYTNTQLLELEKEFHFNKYLCRPRRVEIAALLDLTERQVKVWFQNRRMKHKRQTQHREPPDGEPACPGALEDICDPAEEPAASPGGPSASRAAWEACCHPPEVVPGALSADPRPLAVRLEGAGASSPGCALRGAGGLEPGPLPEDVFSGRQDSPFLPDLNFFAADSCLQLSGGLSPSLQGSLDSPVPFSEEELDFFTSTLCAIDLQFP
notes: as for B1
B3: KLF15 fused to BioID2 (BirA from Aquifex aeolicus) and FLAG (other, human;Aquifex aeolicus, UniProt Q9UIH9 1-416, looked up)
chain: MVDHLLPVDENFSSPKCPVGYLGDRLVGRRAYHMLPSPVSEDDSDASSPCSCSSPDSQALCSCYGGGLGTESQDSILDFLLSQATLGSGGGSGSSIGASSGPVAWGPWRRAAAPVKGEHFCLPEFPLGDPDDVPRPFQPTLEEIEEFLEENMEPGVKEVPEGNSKDLDACSQLSAGPHKSHLHPGSSGRERCSPPPGGASAGGAQGPGGGPTPDGPIPVLLQIQPVPVKQESGTGPASPGQAPENVKVAQLLVNIQGQTFALVPQVVPSSNLNLPSKFVRIAPVPIAAKPVGSGPLGPGPAGLLMGQKFPKNPAAELIKMHKCTFPGCSKMYTKSSHLKAHLRRHTGEKPFACTWPGCGWRFSRSDELSRHRRSHSGVKPYQCPVCEKKFARSDHLSKHIKVHRFPRSSRSVRSVN
notes: as for B1

Assays:
Experiment in all cases: BioID2 proximity labelling, HEK293 cells
EPC1 = target: T1, EPC1 (human, UniProt Q9H2F5 1-836, limits assumed)
T1 construct: also called NuA4 subunit EPC1

p300 = target: T2, p300 (human, UniProt Q09472 2-2414)
T2 construct: Endogenous prey identified by mass spectrometry; also called EP300; CBP/p300 (with CBP)

CBP = target: T3, CBP (human, UniProt Q92793 2-2442)
T3 construct: Endogenous prey identified by mass spectrometry; also called CBP/p300 (with p300)

Binder	binding result (EPC1)	binding result (p300)	binding result (CBP)
B1	binds	–	–
B2	–	binds	binds
B3	–	binds	binds
